This test has as its target Glo3 fused to LexA (bait, pEG202) (S. cerevisiae) (UniProt P38682). In words: two-hybrid; Glo3 fused to LexA as bait (pEG202), target proteins fused to B42 (pJG4-5); beta-galactosidase assay, Miller units, triplicates.

Chains of the proteins cited; added tags and fusions are not shown.
UniProt P38682: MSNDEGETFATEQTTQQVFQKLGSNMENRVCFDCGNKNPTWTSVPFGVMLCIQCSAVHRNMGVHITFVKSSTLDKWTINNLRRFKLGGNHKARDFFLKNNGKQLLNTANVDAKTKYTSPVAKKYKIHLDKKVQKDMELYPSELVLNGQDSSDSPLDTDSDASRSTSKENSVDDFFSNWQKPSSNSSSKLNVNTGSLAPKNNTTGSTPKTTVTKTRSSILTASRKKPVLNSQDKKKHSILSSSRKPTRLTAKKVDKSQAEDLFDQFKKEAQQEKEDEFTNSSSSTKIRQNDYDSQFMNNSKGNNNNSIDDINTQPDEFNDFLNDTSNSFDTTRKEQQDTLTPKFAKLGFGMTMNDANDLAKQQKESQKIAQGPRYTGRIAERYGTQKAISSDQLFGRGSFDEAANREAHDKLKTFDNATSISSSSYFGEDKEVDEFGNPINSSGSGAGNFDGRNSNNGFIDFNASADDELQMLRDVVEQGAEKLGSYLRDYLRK

These are yes or no findings as the source states them, for the method shown. Some results given as binding are weak or reduced against the parent protein; the word gives no strength. Sequences can lack the tags named with a protein.

B1: Erg3 fused to B42 (prey, pJG4-5) (protein, UniProt P32353 1-365)
chain: MDLVLEVADHYVLDDLYAKVLPASLAANIPVKWQKLLGLNSGFSNSTILQETLNSKNAVKECRRFYGQVPFLFDMSTTSFASLLPRSSILREFLSLWVIVTIFGLLLYLFTASLSYVFVFDKSIFNHPRYLKNQMAMEIKLAVSAIPWMSMLTVPWFVMELNGHSKLYMKIDYENHGVRKLIIEYFTFIFFTDCGVYLAHRWLHWPRVYRALHKPHHKWLVCTPFASHSFHPVDGFLQSISYHIYPLILPLHKVSYLILFTFVNFWTVMIHDGQYLSNNPAVNGTACHTVHHLYFNYNYGQFTTLWDRLGGSYRRPDDSLFDPKLRDAKETWDAQVKEVEHFIKEVEGDDNDRIYENDPNTKKNN
For B1, the binding entry is on record as “binds”.

Source of the values: article PMC4571087.
